Assay [1] has as its target endogenous Snail (human (endogenous in MIA PaCa-2 and PANC-1)) (UniProt O95863). Nature of the assay: co-IP; endogenous proteins in MIA PaCa-2 and PANC-1 cell lysates; immunoprecipitation with the anti-Snail antibody, Western blot. (In general: Immunoblotting shows a protein as a band on a membrane.)
The next assay deals with GST-Snail (human) (UniProt O95863). Kind of assay: pull-down; GST or GST-Snail incubated with HIS-FBXO11 in the presence or absence of HIS-ERK3 overnight at 4 °C in GST binding buffer (50 mM Tris-HCl pH 7.5, 150 mM NaCl, 1 mM EDTA); captured on Glutathione HiCap Matrix beads; Western blot with the anti-FBXO11 antibody; both purified.
The target of another assay is HA-Snail (human) (UniProt O95863). Kind of assay: co-IP; HEK293T cells co-transfected with tagged proteins; Triton X-100 lysis buffer; lysates incubated with anti-Flag, anti-HA or anti-Myc antibody overnight at 4 °C, Protein A+G agarose beads, five washes, Western blot; Figure 6E with or without co-expressed Flag-ERK3.
Assay [2] deals with Flag-ERK3 (pCMV3-MAPK6-Flag) (UniProt Q16659). The description is as above.
Assay [3] concerns the target Flag-ERK3 CA (constitutive active ERK3, Ser189 to aspartic acid) (UniProt Q16659). The assay is described as above.
In assay [4] the target is Flag-ERK3 KD (kinase dead ERK3, Asp171 to alanine) (UniProt Q16659). The description is as above.
Assay [5] has as its target T1, Myc-FBXO11 (pCMV3-FBXO11-Myc) (UniProt Q86XK2).
T1 sequence: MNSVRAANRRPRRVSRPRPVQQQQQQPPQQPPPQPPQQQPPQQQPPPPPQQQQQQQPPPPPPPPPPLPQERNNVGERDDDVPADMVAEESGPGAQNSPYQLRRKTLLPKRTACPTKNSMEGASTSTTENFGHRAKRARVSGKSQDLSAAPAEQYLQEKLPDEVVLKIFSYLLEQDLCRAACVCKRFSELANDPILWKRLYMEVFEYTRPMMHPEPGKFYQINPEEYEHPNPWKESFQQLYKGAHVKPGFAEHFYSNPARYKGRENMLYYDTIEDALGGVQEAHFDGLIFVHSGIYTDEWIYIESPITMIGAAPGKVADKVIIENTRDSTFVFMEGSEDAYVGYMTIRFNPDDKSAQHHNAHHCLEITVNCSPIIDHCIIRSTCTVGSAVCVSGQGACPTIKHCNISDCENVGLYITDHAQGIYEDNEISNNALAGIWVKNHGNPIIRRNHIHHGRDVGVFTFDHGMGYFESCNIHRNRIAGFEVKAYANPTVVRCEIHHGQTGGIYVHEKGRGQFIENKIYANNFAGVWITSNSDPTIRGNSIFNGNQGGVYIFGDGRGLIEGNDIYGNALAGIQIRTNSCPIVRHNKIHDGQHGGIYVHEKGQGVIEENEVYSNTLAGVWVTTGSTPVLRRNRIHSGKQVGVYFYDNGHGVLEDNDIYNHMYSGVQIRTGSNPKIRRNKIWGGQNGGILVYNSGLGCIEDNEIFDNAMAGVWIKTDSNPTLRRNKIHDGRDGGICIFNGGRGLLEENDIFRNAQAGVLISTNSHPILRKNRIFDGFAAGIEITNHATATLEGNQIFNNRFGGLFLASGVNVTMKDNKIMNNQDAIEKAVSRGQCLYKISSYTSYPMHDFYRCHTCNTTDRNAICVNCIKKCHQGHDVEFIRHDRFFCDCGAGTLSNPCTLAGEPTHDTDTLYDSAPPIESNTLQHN
The description is as above.

Amino acid sequences for entries named in this document (tags omitted). A change or cut given only in a name is not applied to a line headed by its entry. Chains listed by the source or under a name are the forms on record and can include a tag or linker.
UniProt O95863: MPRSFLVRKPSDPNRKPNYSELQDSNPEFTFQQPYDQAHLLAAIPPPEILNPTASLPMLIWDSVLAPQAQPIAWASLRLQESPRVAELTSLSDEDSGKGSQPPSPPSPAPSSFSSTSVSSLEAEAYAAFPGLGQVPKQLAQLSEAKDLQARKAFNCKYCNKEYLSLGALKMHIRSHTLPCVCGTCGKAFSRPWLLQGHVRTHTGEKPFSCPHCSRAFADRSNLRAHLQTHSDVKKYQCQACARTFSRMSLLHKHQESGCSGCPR
UniProt Q16659: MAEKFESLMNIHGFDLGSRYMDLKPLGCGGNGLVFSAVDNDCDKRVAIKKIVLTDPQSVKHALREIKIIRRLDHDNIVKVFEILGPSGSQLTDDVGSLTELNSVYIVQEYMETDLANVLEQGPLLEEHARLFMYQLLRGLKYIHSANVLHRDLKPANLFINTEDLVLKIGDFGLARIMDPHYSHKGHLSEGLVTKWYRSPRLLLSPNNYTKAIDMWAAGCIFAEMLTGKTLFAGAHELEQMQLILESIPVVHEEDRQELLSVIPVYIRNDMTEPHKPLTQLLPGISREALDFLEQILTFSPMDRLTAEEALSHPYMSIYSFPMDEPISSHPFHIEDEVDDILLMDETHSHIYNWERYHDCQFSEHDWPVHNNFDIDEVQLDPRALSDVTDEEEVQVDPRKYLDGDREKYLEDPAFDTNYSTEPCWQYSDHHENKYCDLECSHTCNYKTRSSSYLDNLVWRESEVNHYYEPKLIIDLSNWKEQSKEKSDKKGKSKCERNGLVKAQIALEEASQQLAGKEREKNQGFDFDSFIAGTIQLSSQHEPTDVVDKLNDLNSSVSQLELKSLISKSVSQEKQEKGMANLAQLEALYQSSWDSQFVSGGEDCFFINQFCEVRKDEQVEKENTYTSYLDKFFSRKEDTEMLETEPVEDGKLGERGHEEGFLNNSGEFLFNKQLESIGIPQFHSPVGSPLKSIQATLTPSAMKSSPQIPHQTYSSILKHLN
Flag-ERK3 CA (constitutive active ERK3, Ser189 to aspartic acid) (Q16659, form named): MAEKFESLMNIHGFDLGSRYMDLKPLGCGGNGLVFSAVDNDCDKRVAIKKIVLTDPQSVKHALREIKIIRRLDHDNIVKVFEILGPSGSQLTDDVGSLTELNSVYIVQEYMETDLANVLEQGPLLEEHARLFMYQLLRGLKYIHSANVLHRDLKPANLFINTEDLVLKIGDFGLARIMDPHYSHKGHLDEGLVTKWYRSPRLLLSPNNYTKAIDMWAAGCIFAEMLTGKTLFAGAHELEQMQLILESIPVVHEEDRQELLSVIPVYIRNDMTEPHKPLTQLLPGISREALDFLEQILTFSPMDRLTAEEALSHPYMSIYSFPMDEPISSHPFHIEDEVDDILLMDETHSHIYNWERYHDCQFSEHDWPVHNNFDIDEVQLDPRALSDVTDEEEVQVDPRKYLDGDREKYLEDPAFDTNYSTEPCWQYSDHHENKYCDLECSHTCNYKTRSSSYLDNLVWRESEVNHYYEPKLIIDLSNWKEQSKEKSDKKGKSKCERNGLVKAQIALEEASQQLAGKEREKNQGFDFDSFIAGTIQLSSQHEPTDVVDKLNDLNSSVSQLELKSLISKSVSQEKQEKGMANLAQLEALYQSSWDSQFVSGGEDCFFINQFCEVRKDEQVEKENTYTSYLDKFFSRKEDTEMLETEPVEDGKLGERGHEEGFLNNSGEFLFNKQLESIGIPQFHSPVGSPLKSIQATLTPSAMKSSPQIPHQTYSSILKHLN
Flag-ERK3 KD (kinase dead ERK3, Asp171 to alanine) (Q16659, form named): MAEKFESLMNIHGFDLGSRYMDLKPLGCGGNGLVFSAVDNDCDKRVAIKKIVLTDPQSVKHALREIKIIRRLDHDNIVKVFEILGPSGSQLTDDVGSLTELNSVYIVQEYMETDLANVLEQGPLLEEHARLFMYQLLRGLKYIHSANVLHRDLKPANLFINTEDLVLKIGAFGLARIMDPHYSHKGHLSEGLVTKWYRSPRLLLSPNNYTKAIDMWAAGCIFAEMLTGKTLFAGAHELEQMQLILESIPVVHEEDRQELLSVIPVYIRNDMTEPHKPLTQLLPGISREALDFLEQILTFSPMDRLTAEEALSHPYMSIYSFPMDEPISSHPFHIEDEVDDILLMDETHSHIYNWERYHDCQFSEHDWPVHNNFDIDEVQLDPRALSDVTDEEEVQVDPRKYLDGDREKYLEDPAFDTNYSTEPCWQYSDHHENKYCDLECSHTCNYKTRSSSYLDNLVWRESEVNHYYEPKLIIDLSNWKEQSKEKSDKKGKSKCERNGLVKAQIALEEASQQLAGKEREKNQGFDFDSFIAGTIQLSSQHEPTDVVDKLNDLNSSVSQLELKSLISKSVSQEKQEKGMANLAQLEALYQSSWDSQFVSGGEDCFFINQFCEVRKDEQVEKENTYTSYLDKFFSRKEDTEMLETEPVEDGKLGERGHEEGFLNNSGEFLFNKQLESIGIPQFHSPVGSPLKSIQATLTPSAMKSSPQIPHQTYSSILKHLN

These are yes or no findings as the source states them, for the method shown. For some assays here: In cells and extracts the contact can be indirect. Some entries that bind do so weakly or less than the wild type. For some assays here: Tags and fused reporters may be left off the sequences shown.

Take “endogenous ERK3 (from UniProt Q16659 1-721) (enzyme)”: the binding result in assay [1] was “binds”.

As for “Recombinant HIS-ERK3 (from UniProt Q16659 1-721) (enzyme)”, the binding result in the assay with GST-Snail (human) was “binds”.

On to “Flag-ERK3 (pCMV3-MAPK6-Flag) (from UniProt Q16659 1-721) (enzyme)”, for which the binding entry with HA-Snail (human) is “binds”.

For HA-Snail (from UniProt O95863 1-264), the binding entry in assay [2], in assay [3], in assay [4] and in assay [5] was “binds” in each case.

B1: Recombinant HIS-FBXO11 (protein, UniProt Q86XK2 1-927)
chain: MNSVRAANRRPRRVSRPRPVQQQQQQPPQQPPPQPPQQQPPQQQPPPPPQQQQQQQPPPPPPPPPPLPQERNNVGERDDDVPADMVAEESGPGAQNSPYQLRRKTLLPKRTACPTKNSMEGASTSTTENFGHRAKRARVSGKSQDLSAAPAEQYLQEKLPDEVVLKIFSYLLEQDLCRAACVCKRFSELANDPILWKRLYMEVFEYTRPMMHPEPGKFYQINPEEYEHPNPWKESFQQLYKGAHVKPGFAEHFYSNPARYKGRENMLYYDTIEDALGGVQEAHFDGLIFVHSGIYTDEWIYIESPITMIGAAPGKVADKVIIENTRDSTFVFMEGSEDAYVGYMTIRFNPDDKSAQHHNAHHCLEITVNCSPIIDHCIIRSTCTVGSAVCVSGQGACPTIKHCNISDCENVGLYITDHAQGIYEDNEISNNALAGIWVKNHGNPIIRRNHIHHGRDVGVFTFDHGMGYFESCNIHRNRIAGFEVKAYANPTVVRCEIHHGQTGGIYVHEKGRGQFIENKIYANNFAGVWITSNSDPTIRGNSIFNGNQGGVYIFGDGRGLIEGNDIYGNALAGIQIRTNSCPIVRHNKIHDGQHGGIYVHEKGQGVIEENEVYSNTLAGVWVTTGSTPVLRRNRIHSGKQVGVYFYDNGHGVLEDNDIYNHMYSGVQIRTGSNPKIRRNKIWGGQNGGILVYNSGLGCIEDNEIFDNAMAGVWIKTDSNPTLRRNKIHDGRDGGICIFNGGRGLLEENDIFRNAQAGVLISTNSHPILRKNRIFDGFAAGIEITNHATATLEGNQIFNNRFGGLFLASGVNVTMKDNKIMNNQDAIEKAVSRGQCLYKISSYTSYPMHDFYRCHTCNTTDRNAICVNCIKKCHQGHDVEFIRHDRFFCDCGAGTLSNPCTLAGEPTHDTDTLYDSAPPIESNTLQHN
As to B1, the binding result with GST-Snail (human) is on record as “binds”.

For the origin of these results see paper PMC10777929.
